Data from patent US20150208656A1, “Substituted thiadiazoles and their use as fungicides” (priority 2012, published 2015).
Some entries share one result that the patent states for a list of compounds.

Experiments:
Phytophthora infestans = format: cell-based; conditions: 125 ppm active substance; relative growth vs active compound-free control (100%); 405 nm, 7 days after inoculation
Septoria tritici [1] = test: Greenhouse test: preventative control of leaf blotch on wheat caused by Septoria tritici; format: in vivo; conditions: 1000 ppm, sprayed to run-off on wheat seedlings, inoculated the following day; untreated plants 90% infected
Botrytis cinerea = test: Activity against the grey mold Botrytis cinerea in the microtiterplate test; format: cell-based; conditions: 125 ppm active substance; relative growth vs active compound-free control (100%); 405 nm, 7 days after inoculation
Phakopsora pachyrhizi = test: Greenhouse test: protective control of soy bean rust on soy beans caused by Phakopsora pachyrhizi; format: in vivo; conditions: sprayed to run-off on soy bean seedlings, inoculated after 1 day, untreated plants 90% infected
Septoria tritici [2] = test: Activity against leaf blotch on wheat caused by Septoria tritici (microtiter test); format: cell-based; conditions: 125 ppm active substance; relative growth vs active compound-free control (100%); 405 nm, 7 days after inoculation
Puccinia recondita = test: Greenhouse test: preventative control of brown rust on wheat caused by Puccinia recondita; format: in vivo; conditions: 500 ppm, sprayed to run-off on wheat seedlings, inoculated the next day; untreated plants 90% infected
Pyricularia oryzae = format: cell-based; conditions: 125 ppm active substance; relative growth vs active compound-free control (100%); 405 nm, 7 days after inoculation
Pyrenophora teres = test: Activity against net blotch Pyrenophora teres on barley in the microtiter test; format: cell-based; conditions: 125 ppm active substance; relative growth vs active compound-free control (100%); 405 nm, 7 days after inoculation

Row | SMILES | growth of the pathogen (Phytophthora infestans) | infection (% diseased leaf area) (Septoria tritici [1]) | growth of the pathogen (Botrytis cinerea) | infection (% diseased leaf area) (Phakopsora pachyrhizi; 500 ppm) | infection (% diseased leaf area) (Phakopsora pachyrhizi; 1000 ppm) | growth of the pathogen (Septoria tritici [2]) | infection (% diseased leaf area) (Puccinia recondita) | growth of the pathogen (Pyricularia oryzae) | growth of the pathogen (Pyrenophora teres)
1 | Cn1c(=O)c2sc3nsnc3sc=2c1=O [I-1, 6-Methyl-5H-Pyrrolo (3′,4′:5,6)(1,4)dithiino-(2,3-C)-(1,2,5)thiadiazole-5,7(6H)-dione] | at most 9% | less than or equal to 1% |  |  |  |  |  |  | 
2 | CCn1c(=O)c2sc3nsnc3sc=2c1=O [I-2] | at most 9% | less than or equal to 1% | at most 3% | less than or equal to 10% | less than or equal to 10% | at most 2% | less than or equal to 1% |  | 
3 | COn1c(=O)c2sc3nsnc3sc=2c1=O [I-3, 6-Methoxy-5H-Pyrrolo (3′,4′:5,6)(1,4)dithiino-(2,3-C)-(1,2,5)thiadiazole-5,7(6H)-dione] | at most 9% | less than or equal to 1% |  |  |  |  |  |  | 
4 | CCCn1c(=O)c2sc3nsnc3sc=2c1=O [I-5] | at most 9% |  | at most 3% | less than or equal to 10% |  |  | less than or equal to 1% | at most 3% | 
5 | C=CCn1c(=O)c2sc3nsnc3sc=2c1=O [I-7] | at most 9% |  | at most 3% |  |  | at most 2% | less than or equal to 1% | at most 3% | at most 1%
6 | CC(C)n1c(=O)c2sc3nsnc3sc=2c1=O [I-8] | at most 9% |  | at most 3% | less than or equal to 10% |  | at most 2% | less than or equal to 1% | at most 3% | at most 1%
7 | C=CCCn1c(=O)c2sc3nsnc3sc=2c1=O [I-9] | at most 9% |  | at most 3% |  |  | at most 2% |  | at most 3% | at most 1%
